Among all 53,000 sequences or so, about 3,700 (7%) were called active.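 How the source made its calls: active means gene knockdowns whose robust z-score for IL-1 alpha signal is at least 2 or at most -2, so actives lie on both sides; inactive means the rest.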 The list shows a part of the results.
Assay: Components of the Cytosolic LPS Sensing Pathway: Gene Identification via Genome-wide siRNA Screen;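 further: robust z of the log signal after scaling to non-targeting control siRNA wells of the plate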
Settings: RAW264.7 macrophages, IL-1a HTRF, actives lie on both sides, screened at 100 nM (by protocol), cells primed 5 h with Pam3CSK4 first
Method in brief: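 Using IL-1a HTRF as read-out, the screen measured release from RAW264.7 cells after 48h siRNA knockdown (100 nM), 5 h Pam3CSK4 priming and 24 h cytosolic LipidA. Values were expressed relative to negative-control wells as robust z-scores.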
In the case of GGAGUUCAUUGUUUGGUUGTT against Nat2, the z-score is reported as inactive: 0.593.
For GGAGAGUGUUACAAAAAUUTT against Rcbtb1, the z-score was inactive: 0.132.
With CCUCAUCAUAUUGAUGAGUTT against Ranbp3 the z-score was inactive: 0.977.
With GGCAUAUGCUGAUUAUAGATT against Ankef1 the z-score was inactive: 0.378.
For GGCUUGCCCUUUAAUAAAATT against Krt88, the z-score was inactive: 0.605.
For GGACUACAUGCUCACGUUATT against Ccm2, the z-score was active: 2.07.
In the case of GGCUAUGCAAUGGAUCUGATT against Osbpl5, the z-score is reported as inactive: 0.913.
For GGUGAUGUACAACUUUUUGTT against Wdr34, the z-score was inactive: -0.453.
With GGGUAAACUUCAUGAUCCATT against Kif5b the z-score was inactive: -0.0506.
For GGAAUAUCUCUUUCAAUGATT against Msn, the z-score was inactive: -0.805.
In the case of GGGUACCAUAGGAACCAUGTT against Yipf7, the z-score is reported as inactive: -0.732.
In the case of UUUAGCCUUGCAUACGGACTT against Sfswap, the z-score is reported as inactive: 0.642.
For GGUGCAAACUGAGGUCCUGTT against Ebna1bp2, the z-score was inactive: 1.67.
For GGAUAUUAGUGUGGAGACUTT against Sptbn1, the z-score was inactive: 0.284.
For GGGUGCACUGGCUAAUAUATT against H2-Ea, the z-score was inactive: 1.13.
With GGUCAGAGUACAGCUCCGUTT against Tpsab1 the z-score was inactive: -1.22.
In the case of GCAGCCUGUACAGUUCUAUTT against Gpr139, the z-score is reported as inactive: -0.155.
In the case of GGGACACUGUGUCCCUUCUTT against Tmem189, the z-score is reported as inactive: -0.0937.
With GCACUUUCGUAGAUCACCATT against Bri3bp the z-score was inactive: 0.174.
With GGUGAUACUCAGUUUAAGCTT against Pms2 the z-score was inactive: -1.02.
For GGAGUGCGCUUGAAUAUGATT against Lamp1, the z-score was inactive: -1.48.
In the case of GCAAAUGAUACAGUGGAUUTT against Ctnnd1, the z-score is reported as inactive: 0.0103.
In the case of CGAGAUCAAACCUGGCUUATT against Adarb1, the z-score is reported as inactive: 1.26.
With GCAUGCUGAUGGACUGUAATT against Rcc2 the z-score was inactive: 0.447.
For GAGAGUAUCACCUUCAUUUTT against Kdf1, the z-score was inactive: -0.716.
For GCGGCUCUUUAAGAUCCAGTT against Fbxw5, the z-score was inactive: 0.351.
With GGUAUAUAACCACUCUGUCTT against Dot1l the z-score was inactive: -1.08.
In the case of GCGUGGUUUCUGAAUACAUTT against Nt5e, the z-score is reported as active: 6.67.
In the case of “GGAGAAUGACAUCUUGAGCTT against D5Ertd579e”, the z-score is reported as inactive: 0.438.
For CCCAUUACGCAAAUUGUUCTT against Rin3, the z-score was active: -2.31.
In the case of GGAUUUUGCCUAAAAUACATT against Sephs1, the z-score is reported as inactive: 0.179.
For GGAUUGGUUCAUGACCUGATT against Trim52, the z-score was inactive: -0.814.
With “CGGCCUGUUAUAAACCUGCTT against 4933409K07Rik” the z-score was inactive: -0.168.
In the case of GGUUCAUCGUUUCAAGUUUTT against Catsperb, the z-score is reported as inactive: 0.0531.
In the case of GCUACUAGUAUAUGUACUCTT against Psg28, the z-score is reported as inactive: 1.58.
For GGACAAGAAGAAAGAAAAGTT against Tmbim6, the z-score was inactive: -1.07.
For GGUAGCUGUAGUUCUAACUTT against Tmem263, the z-score was inactive: 0.742.
With GGUUUCUGCAUGAAAAUCATT against Irak4 the z-score was inactive: -1.78.
For GGAAGAAUCUUCCUGUUAATT against Chic2, the z-score was inactive: -0.358.
For GGGCCUUUUUAUCCAACUUTT against Mcts1, the z-score was inactive: 0.195.
With GGAGGAUUAUCACAAGUCCTT against Anxa6 the z-score was inactive: 0.886.
For GGACUUAGCACCCUCCUAATT against Tnfsf15, the z-score was inactive: -0.762.
In the case of GGCAUAGAAGAGAUGACAGTT against Fabp7, the z-score is reported as active: -2.18.
For GCUCCCUGUUCUUCACCAUTT against Ifitm1, the z-score was inactive: 0.199.
In the case of GGACAUGCUUUCAAUGGAATT against Tshr, the z-score is reported as inactive: -0.0805.
In the case of GCCUUCAACAAAAAGUUCUTT against Olfr137, the z-score is reported as inactive: -0.311.
In the case of GCUCAUCCAUUACGAGUUGTT against Dusp18, the z-score is reported as inactive: 0.878.
With “GGAUGGGAACUACAUAAUUTT against 2310057J18Rik” the z-score was inactive: -1.89.
With GGAAAAACCAAAUUUACCATT against Pno1 the z-score was inactive: 1.34.
With GGCAGCUUACUAAAGAUCUTT against Got1l1 the z-score was inactive: 1.41.
For GGAGUUUCUGUUUAACAUGTT against Hoxa9, the z-score was inactive: 1.04.
With CGUGCUGUUUGACGGAGUGTT against Eid3 the z-score was inactive: 0.776.
For GGAAAUGACCUACGAAGAATT against Pfkfb4, the z-score was inactive: -1.26.
In the case of GGAACAGCAGCACUCAGACTT against Insyn1, the z-score is reported as inactive: 0.1.
For GCAAGUUCAACCUCAAGGGTT against Zfp710, the z-score was inactive: 1.45.
In the case of GGAAGUUGAAUACAUUGUCTT against Arntl, the z-score is reported as inactive: 0.127.
For GGCUUUCGACCAGUUUUUCTT against Hoxa11, the z-score was inactive: 0.252.
In the case of AGGUGUCUACUUUCCAGCCTT against Slc17a9, the z-score is reported as inactive: -0.744.
For GGGUAGUUAUGACUAAAUUTT against Etl4, the z-score was inactive: 1.31.
With GGAUGCUCAAAAUCUACAATT against H2-M11 the z-score was inactive: 1.17.
For GCCUUUCUGAGGGAUUUUGTT against Eif1ad, the z-score was inactive: -1.81.
In the case of GCAGCAUGCCUGAAUAUUUTT against Prcp, the z-score is reported as inactive: 0.172.
With GGAGAAAUACUCAGAAAUGTT against Mael the z-score was inactive: -1.64.
With GCUGAAUUGCUGGUAGAUUTT against Gtf3c3 the z-score was inactive: -0.00285.
In the case of CCUUCUUUCGCGUAUGCCUTT against Dll1, the z-score is reported as inactive: -0.389.
In the case of GGAAGCAUUCCAAUGGUAGTT against Cyp2c39, the z-score is reported as inactive: -0.532.
With CGAACAGGAGAGCCUUAUUTT against H2-DMb2 the z-score was inactive: -0.416.
In the case of GGAUCUCCAGAAAGACUUUTT against Gtf2ird2, the z-score is reported as inactive: -0.112.
In the case of GGAGUUUUGUAUGGUGAAATT against Cd8b1, the z-score is reported as inactive: -0.0469.
In the case of CCUGUUCAGAUUGUCAACATT against Ptov1, the z-score is reported as inactive: -0.0331.
In the case of GGUGACACCGCUCAUGAUCTT against Sephs2, the z-score is reported as inactive: -1.04.
In the case of GCAAUAGCCGGGAGAUAACTT against Itlnb, the z-score is reported as inactive: 0.378.
With GGUGCUCAAUAAACACAUGTT against Mzf1 the z-score was inactive: 1.41.
With GGAUCUGAAGUACAAGAAUTT against Tmem216 the z-score was inactive: 0.475.
In the case of CCACAGUAUCUUAAUGCAATT against Eif3e, the z-score is reported as inactive: -0.893.
With GGACUGAAAUGUCUUAGACTT against Selenow the z-score was inactive: -1.21.
In the case of GGAGACUUCAGCACCUUUGTT against C4a, the z-score is reported as inactive: 0.455.
In the case of GGAGGUGCUGAAGUUCUACTT against Bckdha, the z-score is reported as inactive: 1.28.
In the case of GCAAGGCAUUUUUCUAUUUTT against Adcy10, the z-score is reported as inactive: 0.525.
With GGUGGUGUGUGAUGAGAAUTT against Pabpc6 the z-score was inactive: 0.649.
In the case of GGAUCCUAAAAUGAAAAAGTT against Cst13, the z-score is reported as inactive: -0.866.
In the case of GGCGGAAGUCCUUAUCAAATT against Knop1, the z-score is reported as inactive: -0.709.
With GGAGAAGGUGGCCUUCUUUTT against Fbxo46 the z-score was inactive: 0.648.
With GCAGACUCUUCCAAGUAAUTT against Lrrc28 the z-score was inactive: 0.529.
For GCGGACACUACCACCGUUUTT against Slc22a15, the z-score was inactive: 0.465.
For GGCAUAUCUGAGGUGAAUCTT against Sec23b, the z-score was inactive: -1.57.
In the case of GGUUAUGAAUCUCAUCAGUTT against St13, the z-score is reported as inactive: 0.52.
In the case of GGCAUGGAAGGAGGUGCUUTT against Hecw2, the z-score is reported as inactive: -0.918.
With GGAUACAUUCCAGACAUACTT against Map3k2 the z-score was inactive: -0.0192.
In the case of CCAUUAAUUACGUGUUUGUTT against Dixdc1, the z-score is reported as inactive: -0.104.
For CGCUCUAGGAAAACAAUGUTT against Klb, the z-score was inactive: -0.614.
For GGACAAGUCAAUUUGUUGGTT against Zfp36l1, the z-score was inactive: 0.277.
With GGUCUUAAAUAAUCUGGUCTT against Olfr959 the z-score was inactive: 0.174.
For CCUAUGUCACUAAGGCACGTT against Nudt13, the z-score was inactive: 0.482.
In the case of CCUAGUAAUCAGUUUGAAUTT against Ak4, the z-score is reported as inactive: 1.17.
In the case of GGAACCACACCAUGUGAAATT against Prdm5, the z-score is reported as inactive: 0.828.
For GGAAAUCUCCUAGAAGAAATT against Mrps18b, the z-score was inactive: 0.439.
For GGAUUGCCUCACGGUUGCUTT against Ankrd39, the z-score was inactive: -1.18.
With GCUGCUAAUAUCAAUAACGTT against Prf1 the z-score was inactive: -0.809.
With GGUAAGGGUCUCUUAUUGCTT against Slc22a15 the z-score was inactive: -0.482.
In the case of GCAACCAGAGAAAGUUGAGTT against Scx, the z-score is reported as inactive: 0.681.
For GGUAUAUGAGCAGCUGUCCTT against Uxt, the z-score was inactive: -0.466.
With GGCCCAACUGGAACAGUAUTT against Fndc9 the z-score was inactive: 0.694.
In the case of GGUCCAGAUACAGAACUGUTT against Cd3eap, the z-score is reported as inactive: 1.53.
For GGCUCAUCUGACCAACCAGTT against Pabpc4, the z-score was inactive: -0.114.
For GCAGUUGGCAUAUUUUAUGTT against Olfr1033, the z-score was inactive: -0.738.
For GGAGAUCCUGGAGAACUCUTT against Jph2, the z-score was inactive: -0.233.
